Results published in the supplement of paper PMC10849652.
This is one part of the list.

The chains behind the UniProt entries cited, without tags or fusion partners. Where a name states a change or a piece, a line headed by the entry shows the natural chain unless it says otherwise.
UniProt O14735: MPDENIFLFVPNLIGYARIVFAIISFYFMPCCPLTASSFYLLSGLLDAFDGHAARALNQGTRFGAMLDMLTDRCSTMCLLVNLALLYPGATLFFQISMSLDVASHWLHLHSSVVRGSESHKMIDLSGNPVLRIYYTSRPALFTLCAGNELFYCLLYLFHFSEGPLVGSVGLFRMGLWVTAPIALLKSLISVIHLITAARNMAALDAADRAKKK
UniProt Q9BWS9: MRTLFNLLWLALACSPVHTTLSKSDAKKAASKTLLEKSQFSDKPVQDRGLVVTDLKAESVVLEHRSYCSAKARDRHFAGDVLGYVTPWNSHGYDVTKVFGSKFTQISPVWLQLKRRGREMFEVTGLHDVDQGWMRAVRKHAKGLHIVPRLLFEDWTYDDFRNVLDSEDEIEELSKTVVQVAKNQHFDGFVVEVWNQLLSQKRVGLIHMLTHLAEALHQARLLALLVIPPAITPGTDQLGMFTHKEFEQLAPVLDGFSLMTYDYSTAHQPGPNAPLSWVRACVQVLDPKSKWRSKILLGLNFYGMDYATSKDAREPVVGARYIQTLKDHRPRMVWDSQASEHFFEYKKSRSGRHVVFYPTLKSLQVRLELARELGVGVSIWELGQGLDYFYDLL
UniProt Q8TD26: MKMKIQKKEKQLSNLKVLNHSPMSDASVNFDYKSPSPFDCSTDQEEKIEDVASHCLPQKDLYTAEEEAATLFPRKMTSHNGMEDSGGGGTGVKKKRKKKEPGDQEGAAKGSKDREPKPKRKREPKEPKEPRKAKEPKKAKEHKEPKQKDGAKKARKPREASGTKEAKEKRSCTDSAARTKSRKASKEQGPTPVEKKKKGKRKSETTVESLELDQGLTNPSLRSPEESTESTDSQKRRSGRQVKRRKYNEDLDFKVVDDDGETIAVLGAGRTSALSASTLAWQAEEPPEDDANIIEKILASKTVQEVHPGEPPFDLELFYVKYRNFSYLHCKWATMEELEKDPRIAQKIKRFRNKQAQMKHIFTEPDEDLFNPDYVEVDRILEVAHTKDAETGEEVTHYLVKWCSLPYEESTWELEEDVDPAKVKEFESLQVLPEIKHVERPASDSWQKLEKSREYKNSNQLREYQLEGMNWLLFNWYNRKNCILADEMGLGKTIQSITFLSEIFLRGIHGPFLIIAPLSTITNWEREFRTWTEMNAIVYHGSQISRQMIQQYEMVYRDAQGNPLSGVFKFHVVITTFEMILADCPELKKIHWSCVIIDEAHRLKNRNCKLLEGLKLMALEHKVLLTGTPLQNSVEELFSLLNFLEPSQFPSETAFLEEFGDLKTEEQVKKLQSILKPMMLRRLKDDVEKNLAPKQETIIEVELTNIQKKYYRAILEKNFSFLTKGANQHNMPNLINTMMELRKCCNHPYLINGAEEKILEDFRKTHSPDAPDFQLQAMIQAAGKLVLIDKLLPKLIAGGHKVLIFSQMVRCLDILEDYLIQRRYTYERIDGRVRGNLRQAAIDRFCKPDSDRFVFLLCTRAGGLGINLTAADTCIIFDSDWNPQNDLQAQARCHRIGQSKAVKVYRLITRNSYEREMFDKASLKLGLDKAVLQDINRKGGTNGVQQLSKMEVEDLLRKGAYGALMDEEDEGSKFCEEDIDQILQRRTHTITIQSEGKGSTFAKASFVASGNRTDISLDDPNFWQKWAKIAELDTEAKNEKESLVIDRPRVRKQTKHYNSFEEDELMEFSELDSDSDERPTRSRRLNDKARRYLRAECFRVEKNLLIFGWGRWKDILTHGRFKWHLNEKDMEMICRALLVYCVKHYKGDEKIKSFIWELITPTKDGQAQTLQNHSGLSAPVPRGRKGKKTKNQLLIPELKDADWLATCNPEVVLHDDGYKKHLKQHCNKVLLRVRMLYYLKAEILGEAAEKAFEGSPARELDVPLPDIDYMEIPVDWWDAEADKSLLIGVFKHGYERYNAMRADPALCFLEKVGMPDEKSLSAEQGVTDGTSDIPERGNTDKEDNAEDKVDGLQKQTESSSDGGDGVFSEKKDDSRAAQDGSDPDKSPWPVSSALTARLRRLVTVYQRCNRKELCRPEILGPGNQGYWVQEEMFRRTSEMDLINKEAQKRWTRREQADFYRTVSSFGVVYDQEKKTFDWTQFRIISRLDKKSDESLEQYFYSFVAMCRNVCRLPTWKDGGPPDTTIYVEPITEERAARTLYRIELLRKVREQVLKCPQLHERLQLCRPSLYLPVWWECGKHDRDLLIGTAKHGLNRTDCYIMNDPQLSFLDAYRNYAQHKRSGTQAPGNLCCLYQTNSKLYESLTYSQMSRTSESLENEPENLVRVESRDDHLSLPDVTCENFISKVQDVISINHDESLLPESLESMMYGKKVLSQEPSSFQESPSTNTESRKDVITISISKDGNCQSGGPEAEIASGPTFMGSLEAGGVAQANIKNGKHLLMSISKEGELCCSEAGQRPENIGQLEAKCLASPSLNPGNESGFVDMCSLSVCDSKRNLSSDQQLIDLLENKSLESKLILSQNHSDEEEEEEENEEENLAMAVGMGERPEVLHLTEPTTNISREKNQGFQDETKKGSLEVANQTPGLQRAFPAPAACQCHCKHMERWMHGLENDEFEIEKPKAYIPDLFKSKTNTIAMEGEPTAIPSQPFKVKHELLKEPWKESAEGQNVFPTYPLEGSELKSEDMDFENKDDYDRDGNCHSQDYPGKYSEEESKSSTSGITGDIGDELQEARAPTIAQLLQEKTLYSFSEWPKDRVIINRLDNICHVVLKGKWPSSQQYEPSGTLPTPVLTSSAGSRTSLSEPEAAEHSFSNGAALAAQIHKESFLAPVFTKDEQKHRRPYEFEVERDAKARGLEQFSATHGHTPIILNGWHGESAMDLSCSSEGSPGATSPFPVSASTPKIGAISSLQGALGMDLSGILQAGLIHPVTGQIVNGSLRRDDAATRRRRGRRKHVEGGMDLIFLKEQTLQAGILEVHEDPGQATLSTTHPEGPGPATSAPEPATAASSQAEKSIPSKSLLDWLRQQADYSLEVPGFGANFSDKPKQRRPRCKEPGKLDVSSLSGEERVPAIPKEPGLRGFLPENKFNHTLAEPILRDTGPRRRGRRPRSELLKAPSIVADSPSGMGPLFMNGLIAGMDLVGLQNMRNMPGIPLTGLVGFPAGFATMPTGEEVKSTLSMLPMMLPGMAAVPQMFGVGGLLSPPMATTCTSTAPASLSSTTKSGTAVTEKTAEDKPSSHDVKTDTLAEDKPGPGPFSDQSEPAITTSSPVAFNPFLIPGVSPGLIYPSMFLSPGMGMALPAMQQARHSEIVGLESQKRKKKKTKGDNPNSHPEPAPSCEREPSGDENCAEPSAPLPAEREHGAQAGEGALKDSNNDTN
UniProt Q9Y3E7, whole entry, looked up: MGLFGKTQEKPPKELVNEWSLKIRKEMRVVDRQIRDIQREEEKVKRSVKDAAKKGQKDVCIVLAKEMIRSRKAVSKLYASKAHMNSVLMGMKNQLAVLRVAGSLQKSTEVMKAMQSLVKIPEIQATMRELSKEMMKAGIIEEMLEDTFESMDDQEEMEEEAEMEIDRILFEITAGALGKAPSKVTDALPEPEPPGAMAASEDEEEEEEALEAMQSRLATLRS
UniProt Q9UEE9, whole entry, looked up: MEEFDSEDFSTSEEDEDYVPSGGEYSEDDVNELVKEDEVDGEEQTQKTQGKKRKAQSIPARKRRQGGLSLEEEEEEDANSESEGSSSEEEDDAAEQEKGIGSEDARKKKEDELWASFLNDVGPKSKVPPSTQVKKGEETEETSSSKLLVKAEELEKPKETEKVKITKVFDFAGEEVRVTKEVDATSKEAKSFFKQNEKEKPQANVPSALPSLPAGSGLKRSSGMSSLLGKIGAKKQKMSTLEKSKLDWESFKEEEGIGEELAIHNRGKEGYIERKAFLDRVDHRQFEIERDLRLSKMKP
UniProt Q96FF9: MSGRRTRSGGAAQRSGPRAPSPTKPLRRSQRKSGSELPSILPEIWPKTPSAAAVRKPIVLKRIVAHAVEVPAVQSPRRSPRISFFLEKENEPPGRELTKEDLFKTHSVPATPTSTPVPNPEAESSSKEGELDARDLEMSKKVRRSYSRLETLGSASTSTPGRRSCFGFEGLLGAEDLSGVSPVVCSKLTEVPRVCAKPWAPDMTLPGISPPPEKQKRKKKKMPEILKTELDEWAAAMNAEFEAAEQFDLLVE
UniProt Q9NX63: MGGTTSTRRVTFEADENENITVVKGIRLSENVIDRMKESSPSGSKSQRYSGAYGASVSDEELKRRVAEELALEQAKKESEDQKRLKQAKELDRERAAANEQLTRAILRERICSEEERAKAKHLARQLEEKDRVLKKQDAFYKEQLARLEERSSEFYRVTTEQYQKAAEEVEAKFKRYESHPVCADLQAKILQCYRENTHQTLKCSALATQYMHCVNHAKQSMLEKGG
UniProt P23528, whole entry, looked up: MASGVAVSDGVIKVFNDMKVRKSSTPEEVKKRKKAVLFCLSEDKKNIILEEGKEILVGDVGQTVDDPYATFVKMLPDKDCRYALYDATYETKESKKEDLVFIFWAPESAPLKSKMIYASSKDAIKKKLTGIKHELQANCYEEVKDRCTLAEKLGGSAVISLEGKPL
UniProt Q5SW79: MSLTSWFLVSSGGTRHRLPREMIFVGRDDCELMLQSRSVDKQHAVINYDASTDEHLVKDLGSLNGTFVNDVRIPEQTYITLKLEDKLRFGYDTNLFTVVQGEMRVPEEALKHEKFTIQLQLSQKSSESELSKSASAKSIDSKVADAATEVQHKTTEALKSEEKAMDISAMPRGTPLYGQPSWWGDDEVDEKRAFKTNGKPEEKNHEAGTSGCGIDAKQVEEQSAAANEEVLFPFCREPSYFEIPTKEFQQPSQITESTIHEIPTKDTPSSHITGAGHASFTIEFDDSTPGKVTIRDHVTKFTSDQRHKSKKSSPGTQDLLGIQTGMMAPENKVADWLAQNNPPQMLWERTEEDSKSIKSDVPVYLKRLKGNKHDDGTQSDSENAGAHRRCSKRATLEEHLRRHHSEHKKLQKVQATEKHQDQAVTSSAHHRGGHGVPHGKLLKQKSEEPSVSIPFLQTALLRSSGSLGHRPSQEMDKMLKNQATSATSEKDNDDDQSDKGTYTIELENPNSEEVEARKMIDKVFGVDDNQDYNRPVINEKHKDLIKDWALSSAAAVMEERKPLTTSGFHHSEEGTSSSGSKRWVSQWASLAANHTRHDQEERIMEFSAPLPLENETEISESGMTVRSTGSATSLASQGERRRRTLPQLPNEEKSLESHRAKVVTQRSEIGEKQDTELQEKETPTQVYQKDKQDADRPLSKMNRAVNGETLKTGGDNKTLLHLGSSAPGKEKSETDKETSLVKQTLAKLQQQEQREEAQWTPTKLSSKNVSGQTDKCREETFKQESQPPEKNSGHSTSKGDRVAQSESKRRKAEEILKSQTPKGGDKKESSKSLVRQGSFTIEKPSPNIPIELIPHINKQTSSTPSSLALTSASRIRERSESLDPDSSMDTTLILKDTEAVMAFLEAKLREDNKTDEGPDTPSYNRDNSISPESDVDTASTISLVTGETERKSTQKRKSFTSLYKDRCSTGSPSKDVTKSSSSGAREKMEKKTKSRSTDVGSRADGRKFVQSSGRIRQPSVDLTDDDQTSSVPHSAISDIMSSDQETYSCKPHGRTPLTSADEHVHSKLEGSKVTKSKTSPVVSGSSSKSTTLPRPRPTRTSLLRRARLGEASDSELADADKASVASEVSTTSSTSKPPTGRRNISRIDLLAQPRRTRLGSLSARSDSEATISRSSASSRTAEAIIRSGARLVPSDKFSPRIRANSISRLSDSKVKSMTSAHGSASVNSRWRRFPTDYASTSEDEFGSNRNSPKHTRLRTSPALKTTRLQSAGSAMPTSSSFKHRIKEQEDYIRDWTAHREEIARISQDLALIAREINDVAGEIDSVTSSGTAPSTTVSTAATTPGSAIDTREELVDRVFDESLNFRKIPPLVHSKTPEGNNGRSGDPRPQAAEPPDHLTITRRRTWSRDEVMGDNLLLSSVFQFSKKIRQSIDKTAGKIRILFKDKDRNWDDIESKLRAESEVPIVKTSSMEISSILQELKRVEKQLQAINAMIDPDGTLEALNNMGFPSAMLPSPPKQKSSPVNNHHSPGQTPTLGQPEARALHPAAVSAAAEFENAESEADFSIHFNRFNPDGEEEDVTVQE
UniProt Q9NZZ3: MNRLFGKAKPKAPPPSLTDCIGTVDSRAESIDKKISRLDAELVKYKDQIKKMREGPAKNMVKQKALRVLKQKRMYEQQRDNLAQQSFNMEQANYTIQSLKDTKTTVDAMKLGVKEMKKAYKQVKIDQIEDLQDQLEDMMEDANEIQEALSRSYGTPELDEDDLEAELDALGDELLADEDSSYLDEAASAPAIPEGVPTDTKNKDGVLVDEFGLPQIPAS
UniProt Q9UKY7: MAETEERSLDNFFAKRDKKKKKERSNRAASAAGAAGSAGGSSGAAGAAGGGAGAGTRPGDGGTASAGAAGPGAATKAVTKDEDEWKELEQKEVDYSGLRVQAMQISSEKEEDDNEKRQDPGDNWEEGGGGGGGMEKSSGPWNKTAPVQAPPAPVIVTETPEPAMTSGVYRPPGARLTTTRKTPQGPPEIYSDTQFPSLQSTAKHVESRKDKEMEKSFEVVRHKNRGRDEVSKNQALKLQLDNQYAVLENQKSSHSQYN

Columns and labels:
Experiment in all cases: log2 fold change, soluble protein after heating vs DMSO (PISA); higher = thermal stabilisation; K562 cells, 10 uM, 30 min; active = over 0.2 and 3.5 SD of the protein, either way, in both replicates (recomputed)
[1] = compound: CC[C@@H]1C(=O)N(C)c2cnc(Nc3ccc(C(=O)NC4CCN(C)CC4)cc3OC)nc2N1C1CCCC1
Procedure, shortened: (§1)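 Aliquots of K562 cells (2×10^6 cells/mL) treated with 10 μM compound for 30 min were heated for 3 min over 48°C-58°C. After pooling and extraction in PBS with 0.5% NP-40 at 4°C, soluble protein from a 21,000xg, 90 min spin was quantified by TMTpro 16plex LC-MS/MS with channel sums equalised. Thermal stability is expressed against control samples, from duplicates, as a log2 fold change.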

[2] = compound: CC[C@@H]1C(=O)N(C)c2cnc(Nc3ccc(C(=O)N[C@H]4CC[C@H](N5CCN(CC6CC6)CC5)CC4)cc3OC)nc2N1C(C)C [volasertib]
Procedure, shortened: as §1

[3] = compound: CC[C@H](C)N1C=C(C2=C(C=C(C=C21)C3=CN=C(C=C3)N4CCNCC4)C(=O)NCC5=C(C=C(NC5=O)C)C)C
Procedure, shortened: as §1

[4] = compound: CC[C@H](C)[C@@H](C(=O)N[C@@H]([C@@H](C)O)C(=O)N[C@@H](CC(C)C)C(=O)[C@]1(CO1)C)NC(=O)[C@H]([C@@H](C)CC)N(C)C(=O)C [epoxomicin]
Procedure, shortened: as §1

[5] = compound: CCn1c(C(=O)N(C2CC2)C2CC2)cc2c3c(ncn3C)c(Nc3cc(C)n(C)n3)nc21
Procedure, shortened: as §1

[6] = compound: CCn1cc(-c2ccnc3[nH]c(-c4cccc(CN(C)C)c4)cc23)c(-c2ccc(NC(=O)N(C)C)cc2)n1
Procedure, shortened: as §1

[7] = compound: CN(C)CC(=O)Nc1ccc2[nH]c(=O)c3ccccc3c2c1
Procedure, shortened: as §1

[8] = compound: CN(CCOC1=CC=C(C=C1)C[C@H]2C(=O)NC(=O)S2)C3=CC=CC=N3 (racemic) [rosiglitazone]
Procedure, shortened: as §1

[9] = compound: CN1C2=C(C3=C1C(=O)N(N=C3)CC4=CC(=CC=C4)N)SC(=C2)S(=O)C
Procedure, shortened: as §1

[10] = compound: CN1CCC(CNc2ccc3ncc(-c4cccc(OC(F)(F)F)c4)n3n2)CC1
Procedure, shortened: as §1

[11] = compound: CN1CCN(CCOc2cc(OC3CCOCC3)c3c(Nc4c(Cl)ccc5c4OCO5)ncnc3c2)CC1 [saracatinib]
Procedure, shortened: as §1

[12] = compound: CN1CCN(c2nc(C3=C(c4c[nH]c5ccccc45)C(=O)NC3=O)c3ccccc3n2)CC1 [sotrastaurin]
Procedure, shortened: as §1

[13] = compound: CN1CC[C@H](c2c(O)cc(O)c3c(=O)cc(-c4ccccc4Cl)oc23)[C@H](O)C1 [alvocidib]
Procedure, shortened: as §1

[14] = compound: CN1CCc2c(c3ccccc3n2Cc2ccc(C(=O)NO)cc2)C1 [Tubastatin A]
Procedure, shortened: as §1

[15] = compound: CNC(=O)C1=CC=CC=C1NC2=NC(=NC=C2Cl)NC3=C(C=C(C=C3)N4CCOCC4)OC
Procedure, shortened: as §1

[16] = compound: CNC(=O)c1ccc(Nc2ncc(C(F)(F)F)c(NCc3nccnc3N(C)S(C)(=O)=O)n2)cc1 [defactinib]
Procedure, shortened: as §1

[17] = compound: CNCc1ccc(-c2[nH]c3cc(F)cc4c3c2CCNC4=O)cc1 [rucaparib]
Procedure, shortened: as §1

[18] = compound: CNc1nc(-c2ccc3c(N)n[nH]c3c2)cc(N2C[C@@H](C(=O)NC3CCCCC3)CC[C@H]2C)n1
Procedure, shortened: as §1

[19] = compound: COC(=O)N[C@@H](C)CNc1nccc(-c2cn(C(C)C)nc2-c2cc(Cl)cc(NS(C)(=O)=O)c2F)n1 [encorafenib]
Procedure, shortened: as §1

[20] = compound: COC(=O)[C@H](CCSC)NC(=O)C1=C(C=C(C=C1)NC[C@H](CS)N)C2=CC=CC=C2
Procedure, shortened: as §1

Measured: log2 fold change

CDIPT (UniProt O14735)
inactive: [1] -0.083 | [2] 0.048 | [3] -0.005 | [4] 0.139 | [5] 0.003 | [6] 0.148 | [7] 0.139 | [8] -0.029 | [9] -0.074 | [10] -0.063 | [11] -0.013 | [12] 0.218 | [13] 0.004 | [14] -0.089 | [15] -0.008 | [16] -0.043 | [17] 0.028 | [18] -0.044 | [19] 0.041 | [20] 0.112

CDC73 (UniProt Q6P1J9)
inactive: [1] -0.134 | [2] -0.251 | [3] 0.239 | [4] -0.209 | [5] -0.138 | [6] 0.104 | [7] 0.024 | [8] -0.01 | [9] 0.137 | [10] -0.309 | [11] 0.024 | [12] 0.331 | [13] 0.088 | [14] 0.085 | [15] -0.016 | [16] -0.05 | [17] 0.183 | [18] 0.041 | [19] 0.002 | [20] 0.128

CHID1 (UniProt Q9BWS9)
inactive: [1] -0.011 | [2] -0.012 | [3] -0.022 | [4] 0.05 | [5] 0.045 | [6] 0.011 | [7] -0.052 | [8] 0.009 | [9] 0.026 | [10] 0.084 | [11] -0.088 | [12] -0.059 | [13] 0.058 | [14] 0.016 | [15] 0.007 | [16] 0.065 | [17] 0.036 | [18] -0.005 | [19] 0.043 | [20] 0.016

CHD6 (UniProt Q8TD26)
inactive: [1] -0.061 | [2] 0.27 | [3] 0.14 | [4] -0.064 | [5] 0.45 | [6] -0.175 | [7] 0.023 | [8] 0.004 | [9] -0.031 | [10] -0.003 | [11] 0.411 | [12] 0.353 | [13] -0.043 | [14] -0.188 | [15] 0.242 | [16] -0.017 | [17] 0.042 | [18] 0.001 | [19] 0.01 | [20] 0.235

CHMP3 (UniProt Q9Y3E7)
inactive: [1] -0.115 | [2] -0.101 | [3] 0.006 | [4] 0 | [5] 0.034 | [6] -0.036 | [7] -0.068 | [8] 0.011 | [9] -0.021 | [10] -0.126 | [11] 0.002 | [12] -0.051 | [13] -0.097 | [14] 0.016 | [15] 0.067 | [16] -0.008 | [17] -0.002 | [18] -0.089 | [19] -0.027 | [20] 0.051

CFDP1 (UniProt Q9UEE9)
inactive: [1] 0.034 | [2] 0.076 | [3] -0.04 | [4] 0.031 | [5] 0.015 | [6] -0.019 | [7] -0.026 | [8] -0.004 | [9] -0.022 | [10] 0.001 | [11] 0.062 | [12] 0.042 | [13] -0.007 | [14] -0.036 | [15] -0.047 | [16] -0.027 | [17] -0.014 | [18] -0.072 | [19] -0.028 | [20] 0.019

CDCA5 (UniProt Q96FF9)
inactive: [1] 0.121 | [2] -0.036 | [3] 0.091 | [4] 0.047 | [5] 0.037 | [6] 0.005 | [7] 0.041 | [8] 0 | [9] -0.113 | [10] 0.021 | [11] -0.033 | [12] -0.091 | [13] -0.195 | [14] 0.051 | [15] -0.055 | [16] -0.078 | [17] -0.016 | [18] 0.05 | [19] 0.072 | [20] 0.009

CHCHD3 (UniProt Q9NX63)
inactive: [1] -0.028 | [2] 0.002 | [3] 0.002 | [4] -0.005 | [5] 0.009 | [6] 0.043 | [7] -0.01 | [8] -0.006 | [9] -0.056 | [10] -0.028 | [11] -0.009 | [12] 0.024 | [13] -0.023 | [14] -0.022 | [15] 0.021 | [16] -0.02 | [17] -0.056 | [18] -0.011 | [19] -0.018 | [20] 0.029

CDK7 (UniProt P50613)
inactive: [1] 0.026 | [2] -0.099 | [3] -0.023 | [4] 0.04 | [5] -0.028 | [6] 0.058 | [7] -0.026 | [8] 0.005 | [9] -0.032 | [10] -0.026 | [11] 0.009 | [12] -0.016 | [13] 0.026 | [14] -0.018 | [15] -0.055 | [16] -0.012 | [17] 0.003 | [18] -0.096 | [19] 0.005 | [20] 0.08

CFL1 (UniProt P23528)
inactive: [1] -0.115 | [2] 0.056 | [3] 0.044 | [4] 0.079 | [5] 0.039 | [6] -0.025 | [7] 0.001 | [8] -0.018 | [9] -0.04 | [10] 0.054 | [11] 0.075 | [12] -0.026 | [13] -0.079 | [14] -0.024 | [15] 0.113 | [16] -0.008 | [17] -0.042 | [18] -0.013 | [19] -0.028 | [20] 0.003

CEP170 (UniProt Q5SW79)
inactive: [1] 0.037 | [2] 0.16 | [3] 0.042 | [4] -0.101 | [5] 0.002 | [6] 0.104 | [7] -0.061 | [8] -0.063 | [9] 0.129 | [10] -0.082 | [11] -0.035 | [12] -0.022 | [13] 0.068 | [14] 0.01 | [15] -0.121 | [16] 0.016 | [17] 0.224 | [18] 0.144 | [19] 0.119 | [20] 0.036

CHMP5 (UniProt Q9NZZ3)
inactive: [1] -0.077 | [2] 0.018 | [3] -0.009 | [4] -0.006 | [5] 0.016 | [6] 0.008 | [7] -0.029 | [8] -0.059 | [9] -0.014 | [10] -0.104 | [11] 0.026 | [12] 0.018 | [13] 0.021 | [14] -0.012 | [15] -0.059 | [16] -0.003 | [17] -0.038 | [18] -0.012 | [19] -0.022 | [20] 0.014

CDK2 (UniProt P24941)
inactive: [1] 0.009 | [2] -0.047 | [3] 0.027 | [4] 0.002 | [5] 0.012 | [6] -0.047 | [7] -0.005 | [8] 0.038 | [9] -0.058 | [10] 0.018 | [11] -0.026 | [12] 0 | [13] 0.004 | [14] -0.025 | [15] 0.02 | [16] 0.028 | [17] 0.018 | [18] -0.048 | [19] -0.01 | [20] 0.006

CENPF (UniProt P49454)
inactive: [1] 0.075 | [2] 0.009 | [3] -0.003 | [4] -0.008 | [5] 0.048 | [6] 0.041 | [7] -0.046 | [8] -0.058 | [9] 0.053 | [10] 0.076 | [11] 0.029 | [12] -0.098 | [13] -0.005 | [14] 0.072 | [15] 0.014 | [16] -0.023 | [17] 0.07 | [18] -0.004 | [19] 0.034 | [20] 0.072

CDV3 (UniProt Q9UKY7)
inactive: [1] -0.017 | [2] 0.103 | [3] -0.01 | [4] 0.047 | [5] 0.031 | [6] 0.006 | [7] -0.021 | [8] -0.028 | [9] -0.043 | [10] 0.036 | [11] 0.009 | [12] -0.02 | [13] -0.033 | [14] -0.023 | [15] -0.051 | [16] -0.025 | [17] -0.047 | [18] -0.018 | [19] -0.02 | [20] 0.007

Random excerpt: 2 entries already listed, in no set order.
CHMP5 (UniProt Q9NZZ3)
inactive: [1] -0.077 | [2] 0.018 | [3] -0.009 | [4] -0.006 | [5] 0.016 | [6] 0.008 | [7] -0.029 | [8] -0.059 | [9] -0.014 | [10] -0.104 | [11] 0.026 | [12] 0.018 | [13] 0.021 | [14] -0.012 | [15] -0.059 | [16] -0.003 | [17] -0.038 | [18] -0.012 | [19] -0.022 | [20] 0.014

CDV3 (UniProt Q9UKY7)
inactive: [1] -0.017 | [2] 0.103 | [3] -0.01 | [4] 0.047 | [5] 0.031 | [6] 0.006 | [7] -0.021 | [8] -0.028 | [9] -0.043 | [10] 0.036 | [11] 0.009 | [12] -0.02 | [13] -0.033 | [14] -0.023 | [15] -0.051 | [16] -0.025 | [17] -0.047 | [18] -0.018 | [19] -0.02 | [20] 0.007

Continuation:

CEP192 (UniProt Q8TEP8)
inactive: [1] -0.009 | [2] -0.091 | [3] -0.12 | [4] -0.059 | [5] -0.002 | [6] -0.096 | [7] -0.122 | [8] -0.002 | [9] -0.067 | [10] -0.106 | [11] -0.011 | [12] 0.14 | [13] 0.089 | [14] 0.156 | [15] -0.083 | [16] -0.007 | [17] -0.005 | [18] -0.034 | [19] -0.213 | [20] 0.214
